Assay results as given in article PMC11165526.
No constants are given. Whether binding was seen depends on the method and setting. In cells and extracts the contact can be indirect. Some binding calls cover weakened binding; strength is not graded here.

Sequences of proteins named here, by UniProt entry; tags and fusion partners are left off. A change or cut given only in a name is not applied to a line headed by its entry. A line that says so, or that is headed by a name, gives the form on record, which may keep a tag or linker.
UniProt O95619: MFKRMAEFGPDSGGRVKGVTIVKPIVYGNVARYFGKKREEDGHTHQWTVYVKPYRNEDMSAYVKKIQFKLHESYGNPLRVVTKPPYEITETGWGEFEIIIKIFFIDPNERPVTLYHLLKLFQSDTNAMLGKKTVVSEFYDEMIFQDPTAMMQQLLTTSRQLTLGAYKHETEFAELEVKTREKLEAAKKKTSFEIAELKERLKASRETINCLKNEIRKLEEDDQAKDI
SFB-tagged YEATS4 K64, 65, 69R (3KR) mutant (O95619, form named): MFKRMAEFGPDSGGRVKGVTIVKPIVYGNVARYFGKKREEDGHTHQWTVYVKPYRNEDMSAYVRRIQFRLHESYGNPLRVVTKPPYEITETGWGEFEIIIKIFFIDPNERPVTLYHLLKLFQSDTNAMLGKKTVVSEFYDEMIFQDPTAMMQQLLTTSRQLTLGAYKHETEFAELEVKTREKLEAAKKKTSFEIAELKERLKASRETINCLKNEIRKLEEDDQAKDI
UniProt Q7Z6Z7: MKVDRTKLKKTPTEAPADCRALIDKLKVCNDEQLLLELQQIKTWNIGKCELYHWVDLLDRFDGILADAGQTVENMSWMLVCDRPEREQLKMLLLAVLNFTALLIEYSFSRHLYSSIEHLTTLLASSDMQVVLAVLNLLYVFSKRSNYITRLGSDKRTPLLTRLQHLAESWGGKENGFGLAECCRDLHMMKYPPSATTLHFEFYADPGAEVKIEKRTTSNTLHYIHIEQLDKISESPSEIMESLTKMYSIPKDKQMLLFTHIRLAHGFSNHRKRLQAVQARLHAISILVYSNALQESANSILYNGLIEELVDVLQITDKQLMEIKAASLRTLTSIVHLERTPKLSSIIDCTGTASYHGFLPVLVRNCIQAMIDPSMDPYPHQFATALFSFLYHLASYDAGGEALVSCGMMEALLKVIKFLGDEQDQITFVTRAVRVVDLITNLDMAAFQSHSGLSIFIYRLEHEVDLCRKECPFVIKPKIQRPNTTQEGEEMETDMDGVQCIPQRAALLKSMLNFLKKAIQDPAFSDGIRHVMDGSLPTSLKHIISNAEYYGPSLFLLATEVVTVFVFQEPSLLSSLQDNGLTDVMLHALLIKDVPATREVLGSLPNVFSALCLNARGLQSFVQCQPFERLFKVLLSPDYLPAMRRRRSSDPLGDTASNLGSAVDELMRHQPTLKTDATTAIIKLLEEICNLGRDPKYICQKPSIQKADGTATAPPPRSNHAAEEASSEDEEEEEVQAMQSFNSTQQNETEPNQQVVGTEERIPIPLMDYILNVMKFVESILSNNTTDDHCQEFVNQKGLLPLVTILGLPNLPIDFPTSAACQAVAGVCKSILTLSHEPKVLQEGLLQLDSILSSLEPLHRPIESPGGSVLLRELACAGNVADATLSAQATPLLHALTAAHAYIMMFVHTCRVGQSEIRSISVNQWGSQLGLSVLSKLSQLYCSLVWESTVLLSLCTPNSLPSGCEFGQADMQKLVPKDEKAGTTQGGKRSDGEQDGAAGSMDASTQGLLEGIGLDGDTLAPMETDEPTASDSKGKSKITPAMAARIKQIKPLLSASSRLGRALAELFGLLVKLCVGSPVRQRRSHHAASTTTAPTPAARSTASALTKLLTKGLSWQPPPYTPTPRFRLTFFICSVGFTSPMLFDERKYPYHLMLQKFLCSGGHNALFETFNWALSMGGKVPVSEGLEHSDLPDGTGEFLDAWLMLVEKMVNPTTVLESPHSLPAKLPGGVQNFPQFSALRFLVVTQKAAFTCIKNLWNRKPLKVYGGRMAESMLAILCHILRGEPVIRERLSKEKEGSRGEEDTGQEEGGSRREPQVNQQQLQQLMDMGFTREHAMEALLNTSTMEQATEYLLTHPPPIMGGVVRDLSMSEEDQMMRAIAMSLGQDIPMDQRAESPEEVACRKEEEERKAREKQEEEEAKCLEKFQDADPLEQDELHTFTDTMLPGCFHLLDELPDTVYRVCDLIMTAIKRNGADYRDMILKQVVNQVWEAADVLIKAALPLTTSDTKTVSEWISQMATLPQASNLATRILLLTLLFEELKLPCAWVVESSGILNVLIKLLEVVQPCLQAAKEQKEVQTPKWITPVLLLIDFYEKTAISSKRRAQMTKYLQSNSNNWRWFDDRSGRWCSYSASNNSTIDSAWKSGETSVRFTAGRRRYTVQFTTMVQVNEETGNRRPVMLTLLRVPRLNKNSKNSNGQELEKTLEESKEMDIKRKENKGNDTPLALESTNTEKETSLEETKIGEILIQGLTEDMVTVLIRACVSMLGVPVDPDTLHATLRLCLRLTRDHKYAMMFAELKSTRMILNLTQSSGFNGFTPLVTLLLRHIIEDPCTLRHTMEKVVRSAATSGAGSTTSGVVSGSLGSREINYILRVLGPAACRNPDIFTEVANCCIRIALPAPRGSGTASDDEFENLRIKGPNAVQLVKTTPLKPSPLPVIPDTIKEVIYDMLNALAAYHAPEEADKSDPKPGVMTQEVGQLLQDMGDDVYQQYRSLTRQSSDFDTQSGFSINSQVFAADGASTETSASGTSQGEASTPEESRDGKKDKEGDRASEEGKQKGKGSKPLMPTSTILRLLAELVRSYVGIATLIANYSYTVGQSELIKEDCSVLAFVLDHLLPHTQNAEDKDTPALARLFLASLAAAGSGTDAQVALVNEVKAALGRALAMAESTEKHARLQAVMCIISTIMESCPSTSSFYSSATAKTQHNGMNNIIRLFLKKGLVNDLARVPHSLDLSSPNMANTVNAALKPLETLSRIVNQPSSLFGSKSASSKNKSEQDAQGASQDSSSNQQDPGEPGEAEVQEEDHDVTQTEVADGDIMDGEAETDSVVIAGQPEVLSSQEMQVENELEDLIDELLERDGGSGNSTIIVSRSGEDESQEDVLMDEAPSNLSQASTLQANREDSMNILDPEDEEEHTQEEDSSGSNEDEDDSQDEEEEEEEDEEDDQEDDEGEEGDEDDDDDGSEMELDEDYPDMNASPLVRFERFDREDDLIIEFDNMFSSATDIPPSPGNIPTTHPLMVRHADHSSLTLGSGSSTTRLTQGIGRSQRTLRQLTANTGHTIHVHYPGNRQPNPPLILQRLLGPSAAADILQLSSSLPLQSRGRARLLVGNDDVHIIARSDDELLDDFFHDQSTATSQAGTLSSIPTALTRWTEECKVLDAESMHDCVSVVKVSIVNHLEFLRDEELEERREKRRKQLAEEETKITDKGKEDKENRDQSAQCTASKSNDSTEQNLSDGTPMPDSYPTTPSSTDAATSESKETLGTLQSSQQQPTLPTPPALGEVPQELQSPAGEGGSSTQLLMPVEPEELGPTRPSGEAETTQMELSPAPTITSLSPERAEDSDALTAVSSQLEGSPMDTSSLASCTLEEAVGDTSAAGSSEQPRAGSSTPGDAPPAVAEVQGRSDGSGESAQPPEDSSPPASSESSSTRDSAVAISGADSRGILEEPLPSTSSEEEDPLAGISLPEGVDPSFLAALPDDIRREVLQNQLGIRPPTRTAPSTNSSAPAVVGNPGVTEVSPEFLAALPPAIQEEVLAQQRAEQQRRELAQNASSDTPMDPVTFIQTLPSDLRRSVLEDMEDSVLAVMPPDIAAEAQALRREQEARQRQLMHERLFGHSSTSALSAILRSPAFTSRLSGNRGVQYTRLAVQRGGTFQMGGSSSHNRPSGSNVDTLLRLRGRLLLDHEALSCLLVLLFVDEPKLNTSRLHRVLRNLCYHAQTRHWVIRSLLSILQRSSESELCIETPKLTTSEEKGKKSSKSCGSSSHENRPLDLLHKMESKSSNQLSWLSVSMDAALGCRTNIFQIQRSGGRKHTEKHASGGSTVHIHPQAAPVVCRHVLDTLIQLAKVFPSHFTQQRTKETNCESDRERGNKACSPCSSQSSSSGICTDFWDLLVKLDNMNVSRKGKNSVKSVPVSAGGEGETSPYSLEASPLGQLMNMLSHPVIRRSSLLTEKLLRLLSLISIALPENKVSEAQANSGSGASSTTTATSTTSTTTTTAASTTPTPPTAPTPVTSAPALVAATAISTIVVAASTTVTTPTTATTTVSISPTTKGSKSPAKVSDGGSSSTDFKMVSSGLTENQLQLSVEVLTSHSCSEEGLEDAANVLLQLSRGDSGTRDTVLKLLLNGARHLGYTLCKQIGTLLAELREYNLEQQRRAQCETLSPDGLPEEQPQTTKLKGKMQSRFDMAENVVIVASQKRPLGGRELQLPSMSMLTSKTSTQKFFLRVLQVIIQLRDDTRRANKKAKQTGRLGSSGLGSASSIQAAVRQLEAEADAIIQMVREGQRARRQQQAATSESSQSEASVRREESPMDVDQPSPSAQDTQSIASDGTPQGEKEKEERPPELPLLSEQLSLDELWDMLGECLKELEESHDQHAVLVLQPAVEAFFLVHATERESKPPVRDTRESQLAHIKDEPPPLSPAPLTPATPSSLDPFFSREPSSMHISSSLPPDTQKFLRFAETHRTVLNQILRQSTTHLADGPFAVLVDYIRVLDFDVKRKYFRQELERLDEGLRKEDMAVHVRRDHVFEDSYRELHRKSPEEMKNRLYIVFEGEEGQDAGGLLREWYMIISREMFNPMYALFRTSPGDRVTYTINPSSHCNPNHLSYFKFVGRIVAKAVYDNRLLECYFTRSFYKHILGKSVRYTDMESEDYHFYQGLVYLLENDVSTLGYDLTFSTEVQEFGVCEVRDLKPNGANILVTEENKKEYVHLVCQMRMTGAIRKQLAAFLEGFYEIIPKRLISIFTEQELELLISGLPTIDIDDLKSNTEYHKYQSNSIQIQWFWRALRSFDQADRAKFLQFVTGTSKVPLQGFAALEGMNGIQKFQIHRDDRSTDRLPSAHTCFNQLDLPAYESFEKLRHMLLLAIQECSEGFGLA

Columns and labels:
[1] = molecular target: SFB-tagged YEATS4, wild type (human) (UniProt O95619); test: co-IP; exogenous (transfected) proteins; set-up shown only in Figures S3I and S4A
[2] = molecular target: SFB-tagged YEATS4, wild type (human) (UniProt O95619); test: co-IP; HEK293T cotransfected with YEATS4, HUWE1 and rising amounts of KAT8 for 48 h; IP with streptavidin beads; Western blotting
[3] = molecular target: SFB-tagged YEATS4 K64, 65, 69R (3KR) mutant (human) (UniProt O95619); test: co-IP; HEK293T cotransfected with HUWE1 and YEATS4 WT or 3KR for 48 h, 10 µM MG132 for 8 h; IP with streptavidin beads; Western blotting
[4] = molecular target: SFB-tagged YEATS4, wild type (human) (UniProt O95619); test: as above
[5] = molecular target: YEATS domain-containing protein 4 (YEATS4), endogenous in T24 cells (human (endogenous in T24)) (UniProt O95619); test: co-IP; endogenous proteins of T24 cells; lysate in RIPA buffer (150 mM NaCl, 5 mM EDTA, 0.5% NP40, 50 mM Tris-HCl pH 8.0); anti-YEATS4 (Santa Cruz) or anti-IgG with protein A/G agarose, 4 °C overnight; Western blotting

| Substance | binding [1] | binding [2] | binding [3] | binding [4] | binding [5] |
| --- | --- | --- | --- | --- | --- |
| HA-HUWE1 (from UniProt Q7Z6Z7 1-4374) (enzyme) | binds | binds | binds | binds | – |
| HUWE1, endogenous in T24 cells (from UniProt Q7Z6Z7 1-4374) (enzyme) | – | – | – | – | binds |
